Percent effect of library compounds

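Whole-cell growth test on Mycobacterium tuberculosis, read after 3 days in glucose-containing 7H9 medium; the read-out is not stated. Compounds at 50 µM. The record gives no direction; compounds that gave an IC50 in retests scored well above the rest, so higher reads as more growth inhibition. About 69,000 compounds were tested under these conditions; 1.1% (about 760) showed 50% or more at least once.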

The filed quantity is “Percent Effect” (%).
The record does not define 0% and 100%; most values in the screen are far below 50% and negative numbers occur (in some assays of this library far below -100).
The compounds are a random part of those screened.
Two or more numbers in one place are separate tests of the same structure; such repeats can differ widely.

For COc1ccc(CCC2CCCN(C(=O)c3cnc(N)nc3C)C2)cc1 (stereo not drawn) the result was -0.627% & -0.1486%. With CCOCCCNC(=O)c1ccccc1S(C)(=O)=O the screen gave 36.4% & -0.8924%. COc1cccc(COC(C)C(=O)NC2CCN(CC(N)=O)CC2)c1 (stereo not drawn) gave 3.298%. O=C(CC1COCCN1)NCCc1nc(-c2ccccn2)no1 (stereo not drawn) gave -53.46%.

CCC(CO)NC(=O)Nc1cc(F)ccc1Br (stereo not drawn) gave 9.204%. Cc1nc(NCCc2ccccc2)cc(C(=O)N2CCOCC2)n1 read 15.67%. CN(C)CCN(Cc1cccc(F)c1)C(=O)c1ccc2nccn2c1 gave -23.77%. With COCc1ncc(CN2C[C@@H](C(=O)O)[C@H](C(C)C)C2)cn1 the screen gave -14.07%.

For Cc1ccc(-c2csc(N)c2C#N)c(C)c1 the result was 8.115%. For N#CC1(C(=O)N2CCOC(c3ccc(Cl)cc3)C2)CCCC1 (stereo not drawn) the result was 15.79% & 5.647%. CCn1c(CNCC2CCCN2c2cccnn2)nc2ccccc21 (stereo not drawn) read 8.107%. With CS(=O)(=O)CCN(CCc1cccc(F)c1)C1CC1 the screen gave 7.383%.

With Cc1ccc(-n2nnc(C(=O)NCC3(CO)CC3)c2C2CC2)cc1 the screen gave 2.222%. [H][C@]12CCN(c3ncccn3)C[C@]1(COC)CC[C@@H](N1CCOCC1)C2 gave -10.66%. CN1CC(C(=O)NCCc2ccc(F)c(Br)c2)CC1=O (stereo not drawn) read 12.97%. Cc1csc(C2CCCCN2C(=O)c2cc(Cl)c[nH]2)n1 (stereo not drawn) read 7.356%.

For CN(C)CCN1CCCC12CCN(C(=O)c1ccncc1)CC2.O=C(O)C(F)(F)F.O=C(O)C(F)(F)F the result was 2.25%. Cc1cc(-c2cnc(NC3CCCC3)nc2-c2ccoc2C)on1 read 14.38%. Result for Cc1nc(-c2ccccc2)n(CC(=O)NCC(C)C)n1 was 5.49%. Result for COC(CNC(=O)c1ccoc1)c1cccc(Cl)c1 (stereo not drawn) was 11.24% & 4.638%.

COC(=O)Cc1cccc(NC(=O)Cc2ccon2)c1 gave -14.1%. With O=C(NCCCSc1ccc(F)cc1)C1CCc2cn[nH]c2C1 (stereo not drawn) the screen gave 14.07%. N#Cc1ccc(SCCOCCO)c(F)c1 gave 18.81%. CCc1ccc(C2CCCCCN2C(=O)CNC(=O)NC2CC2)o1 (stereo not drawn) gave 11.43% & -6.568%.

For Cl.Cn1ncc2c1CCCC2NCc1cccc(F)c1 (stereo not drawn) the result was 0.6208%. CS(=O)(=O)N1CCC2(CC1)c1ccccc1[C@@H](N1CCSCC1)[C@@H]2O gave 18.91%. For Cc1ccc(NC2CCN(C(=O)c3cccc4ncccc34)CC2)nn1 the result was -3.92%. With CO[C@H]1CN(S(=O)(=O)c2ccc(F)cc2)C[C@@]12CCCO2 the screen gave -83.88%.

Cl.NC(=O)N1CC2(CCNCC2)c2cc(Cl)ccc21 read 1.828%. O=C(NC1CC1)c1ccn(COc2c(Cl)cccc2Cl)n1 gave 3.448%. For Cc1ccc(N2CCCC(NCC3=Cc4ccccc4OC3)C2)nn1 (stereo not drawn) the result was 10.94%. Result for Cc1nc(-c2cccc(C(=O)N(C)C)c2)cs1 was 23.48% & 41.1%.

Result for CCOC(C)c1nc(CN2CCN(CC(F)F)CC2)cs1 (stereo not drawn) was -17.68%. With Cc1nnc(N2CCCC3(CN(Cc4nccn4C)CCO3)C2)o1 (stereo not drawn) the screen gave -24.05%. CCCN(C(=O)c1ccncc1)c1nc2c(s1)CCc1c-2cnn1C read 50.77%. For CC1CN(C(=O)c2cnn(-c3ccccn3)c2C(C)C)CC(C)(C)O1 (stereo not drawn) the result was 41.66%.

With Cc1cnccc1NC(=O)CCc1ccsc1 the screen gave 12.98%. With CCOc1cc(CNCc2nc(C)cc(=O)[nH]2)c(Cl)cc1OC(C)C the screen gave 32.2%. For CCn1c(C2CCCN(Cc3cccc4cnccc34)C2)nn(C)c1=O (stereo not drawn) the result was -12.07% & -0.946%. Cc1cc(CC(C)NC(=O)c2n[nH]c3c2CCC3)n[nH]1 (stereo not drawn) read -19.33%.

For [H][C@@]12CCN(C(=O)c3ccnnc3)C[C@@]1([H])O[C@@H](c1nc(C)c(C)s1)C2 the result was 3.485% & -19.37%. COCCNC(=O)NC(c1ccccc1)c1ccccc1OC (stereo not drawn) gave -9.963% & -0.8717%. Result for Cc1cc(Cl)ccc1C(=O)N[C@H]1CN(S(C)(=O)=O)C[C@@H]1C1CC1 was -8.775% & -4.888%. With O=C(NCC1CCCO1)c1nc2c(s1)CCCN2Cc1ccccc1 (stereo not drawn) the screen gave -40.97%.

CCCOc1ccc(CN)c(OC(F)F)c1 gave 18.47%.

Source: ChEMBL document CHEMBL3988442, “University of Dundee, Small-Polar-MMV Screening Library” (2021).